From article PMC9845910
These are yes or no findings as the source states them, for the method shown. In cells and extracts the contact can be indirect. A yes stands for co-enrichment or nearness to the bait. Other partners may have been found. Sequences can lack the tags named with a protein.

Biological target: T1, GFP-Tht1 (twin horsetails protein 1, meiotic nuclear fusion protein) (S. pombe) (UniProt Q09684)
T1 sequence (chain, S-palmitoylated at cysteine 65 and 78 (MALDI MS/MS of the pulled-down protein)): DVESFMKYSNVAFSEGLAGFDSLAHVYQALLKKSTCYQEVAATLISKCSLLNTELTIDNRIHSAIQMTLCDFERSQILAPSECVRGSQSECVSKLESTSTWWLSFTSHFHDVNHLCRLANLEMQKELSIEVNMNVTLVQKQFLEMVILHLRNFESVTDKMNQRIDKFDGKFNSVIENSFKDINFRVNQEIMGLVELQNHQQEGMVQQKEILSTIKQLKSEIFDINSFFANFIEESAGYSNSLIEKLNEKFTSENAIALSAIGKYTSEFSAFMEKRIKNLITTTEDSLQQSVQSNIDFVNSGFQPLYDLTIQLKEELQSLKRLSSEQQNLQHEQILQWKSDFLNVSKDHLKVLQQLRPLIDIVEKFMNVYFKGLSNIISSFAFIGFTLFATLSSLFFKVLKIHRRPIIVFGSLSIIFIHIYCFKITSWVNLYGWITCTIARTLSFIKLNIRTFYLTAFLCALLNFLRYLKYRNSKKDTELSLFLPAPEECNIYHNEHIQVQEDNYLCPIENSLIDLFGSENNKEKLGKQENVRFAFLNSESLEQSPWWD
Assay: affinity purification with mass spectrometry; GFP-Trap pull-down of GFP-Tht1 from S. pombe lysate; SDS-PAGE, SYPRO Ruby staining, bands excised, trypsin, MS identification

B1: Sey1, ER fusion GTPase (as found by mass spectrometry in the GFP-Tht1 pull-down) (protein, UniProt Q9UTE0 1-762)
chain: MSTASNRVSTQIVDEHKQFNNELPKFMQSVGLLDAGFNYHVVAVLGSQSTGKSTLLNNLFGTSFSVMDASKRQQTTKGIWLSKANNSPILVMDVEGTDGRERGEDQDFERKSALFSISTSEVIIVNMWENQVGLYQGSNMALLKTVLEVNLQLFHNKKERCLLQFVIRDFLGNTSMENLADTIMTDLNNIWASLSKPEGFENSVINDFFDVGFTGLPHKILCSDAFSEAVDSLRERFVDNNNSDYIFNVSYHKKIPADGFSLYTREIWDTIENNKDLDLPTQQQLLAQYRCDEIITEVMEPFSTACTILQKEFLPGNLCKDLPTKLLNMFETVIEAYDRQASRYNVHIYQKKKQELIASVDSHLYVFFQAQLNALHKELIKSFFDASNEFPSDTPFKESSSIKINELVNKMREEGESLSLPHVHWDVDPFILKLSEELTQNSETLCKEKLKEKLEELFTGFEFEVSEAVEVAFQKLSHNVWDTLLNEFLAAQNTTIEKIKNIVPFYVDIDDTKTTEEYIINFKKNSWLFFRKKIDSEMSEVLLQQRLRVYFEELFRYDSDGMPKLWKKSGTIDRDYRESLTKTLDLINVLASIKVSDGNYPDLNVDIKTLEPEYTSPASFFTILNRRRVSDISVNFKRSADLIFMDCKRSVINTTTRIPPYFWVLLIVLGWNEFMAILRNPFVFMILMFGGTVVYGLYISGLIWPAKMVLERATNNLVDLATDRFSNTYQEQVQQRAMQRTEKSGSPVASADDAEAEKTALS
With B1 as the binder, how does the binding read?
The binding was “binds”.
